Data: patent US20220267288A1, “CARDIAC THERAPEUTIC” (priority 2019, published 2022)

Legend:
CYP2J2 = target: T1, CYP2J2 (Homo sapiens, UniProt P51589); assay: Inhibition of CYP2J2-mediated astemizole metabolism in hiPSC-CM; format: cell-based; parameters: endogenous in cells; host or cells: hiPSC-CM (from human foreskin fibroblasts); details: 2 μM drug co-incubated with 1 μM astemizole, 24 h
T1 sequence (P51589 1-502): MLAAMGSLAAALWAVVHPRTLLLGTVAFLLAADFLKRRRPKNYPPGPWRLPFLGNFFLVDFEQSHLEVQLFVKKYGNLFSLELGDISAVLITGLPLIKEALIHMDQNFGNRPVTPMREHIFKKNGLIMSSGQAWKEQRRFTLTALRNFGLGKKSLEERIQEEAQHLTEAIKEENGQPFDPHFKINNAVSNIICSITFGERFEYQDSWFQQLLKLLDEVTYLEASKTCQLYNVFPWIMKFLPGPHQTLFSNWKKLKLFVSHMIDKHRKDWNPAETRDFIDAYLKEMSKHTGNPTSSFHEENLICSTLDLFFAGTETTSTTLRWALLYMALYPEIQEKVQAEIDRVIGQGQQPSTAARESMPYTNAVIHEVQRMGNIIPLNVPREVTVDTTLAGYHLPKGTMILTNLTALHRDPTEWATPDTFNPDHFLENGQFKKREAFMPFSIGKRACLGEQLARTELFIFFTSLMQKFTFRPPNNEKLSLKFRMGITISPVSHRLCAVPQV
Method: Human foreskin fibroblasts were reprogrammed to form human induced pluripotent stem cells (hiPSC) using viral-free method. hiPSC cell lines were differentiated to cardiomyocytes (hiPSC-CM) as reported previously^1. […] were seeded at a density 100,000 cell/well in a 12-well plate and differentiated for 30 days. […] The cells were then washed with 1×PBS twice and dislodged using Accutase® cell detachment solution. The cells were then pelleted at 2000 g for 10 min at 4° C. […] The cells were sonicated for 15 min on ice to bring about complete cell lysis. The lysate was centrifuged at 10,000×g for 15 min at 4° C. The supernatant was collected and analyzed using LC/MS/MS. The LC/MS/MS system consisted of an Agilent 1290 Infinity ultra-high pressure liquid chromatography (UPLC) system (Agilent Technologies Inc., Santa Clara, Calif.) interfaced with the AB SCIEX QTRAP® 5500 tandem mass spectrometry (MS/MS) system (AB SCIEX, Framingham, Mass.). The LC/MS/MS system was controlled by Analyst 1.4.2 software (Applied Biosystems) which performed all chromatographic peak integration. The ACQUITY UPLC BEH C18 column, 1.7 μM, 2.1×50 mm (Waters, Milford, Mass.), was used to achieve chromatographic separation. The temperatures of the column and samples were maintained at 45° C. and 4° C. respectively. […]

dogs = assay: Electrophysiological variables (AERP, VERP, repolarization periods) in halothane-anesthetized dogs; format: in vivo, dog; details: 3 mg/kg, 60 min after administration
Method: Animals were obtained through Kitayama Labes Co., Ltd. (Nagano, Japan). All experiments were approved by the Toho University Animal Care and User Committee (No. 18-51-395) and performed according to the Guideline for the Care and Use of Laboratory Animals of Toho University.
The dogs were initially anesthetized with thiopental sodium (30 mg/kg, i.v.). After intubation with a cuffed endotracheal tube, anesthesia was maintained by inhalation of halothane (1% v/v) vaporized in oxygen with a volume-limited ventilator (SN-480-3; Shinano Manufacturing Co., Ltd., Tokyo, Japan). Tidal volume and respiratory rate were set at 20 mL/kg and 15 breaths/min, respectively. […]
The lead II electrocardiogram was obtained from the limb electrodes. The P-wave duration, PR interval, QRS width and QT interval were measured, and QT interval was corrected with Van de Water's formula: QTc=QT-0.087×(RR-1,000) with RR given in ms. The J-Tpeak and Tpeak-Tend were measured as follows. […]
A standard 6-French, quad-polar electrodes catheter (Cordis-Webster Inc., Baldwin Park, Calif., USA) was positioned at the non-coronary cusp of the aortic valve through the left femoral artery to obtain the His bundle electrogram. […] The duration of the MAP signals was measured as an interval, along a horizontal line corresponding to the diastolic baseline, from the MAP upstroke to the desired repolarization level. […]

Question: Which “inhibition of CYP2J2 in hiPSC-CM” value (CYP2J2) does the source give for CCCCc1oc2ccccc2c1C(=O)c1cc(I)c(OCCN(CC)CC)c(I)c1 [Amiodarone] here?
Answer: Lack of inhibition

Question: And the “Atrial selectivity (ΔAERP/ΔVERP)” value (dogs)?
Answer: 3.6
